Consider 26 molecules from the supplement of paper PMC10735217.

Where “and” joins values, the source holds several entries; their conditions need not be identical. Equal entries are not always repeated. This is one part of the list. This data set is noisy: repeats of one test often differ as much as different tests do.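 In a drug-repurposing library screen, luminescence reads luciferase driven by eight TEAD-binding elements, stably integrated into human kidney-derived cells. Compounds scoring over five robust Z scores above the plate mean are called hits.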

The subject of the test is HEK293A TEAD-LUC reporter. The experiment in a line: TEAD-luciferase reporter activity (YAP activation), robust Z score vs plate; higher = stronger YAP/TEAD activation. To be noted: 24 h.

Take `CC(C)NCC(O)COc1cccc2[nH]c3ccccc3c12` (stereo not given): the TEAD-luciferase reporter activity is inactive: 0.29 (compound concentration: 200 nM), inactive: -1.38 (compound concentration: 2 uM) and inactive: -0.721 (compound concentration: 10 uM).
Turning to `CCCCP(=O)(O)CCCN`, the TEAD-luciferase reporter activity by setting is: (compound concentration: 200 nM) inactive: -0.167; (compound concentration: 10 uM) inactive: -1.17.
For the molecule `Cc1ccccc1NC(=O)Nc1ccc(CN2C(=O)N([C@@H](CC(C)C)C(=O)N[C@@H](CC(=O)O)c3ccccc3)C(=O)C2(C)C)cc1`, the TEAD-luciferase reporter activity was inactive: -1.21 (compound concentration: 200 nM), inactive: 1.14 (compound concentration: 2 uM) and inactive: -1.1 (compound concentration: 10 uM).
On the same counts, the results for `CC1=C(C(=O)OC(C)C)C(c2ccc([N+](=O)[O-])cc2)C(C(=O)OC(C)C)=C(C)N1` are inactive: -2.51, inactive: -0.839 and inactive: 3.46.
On the same counts, the results for `COc1cc(N2CCC(N(C)C)CC2)ccc1Nc1ncc(Cl)c(Nc2ccccc2P(C)(C)=O)n1` are active: 5.58, inactive: -2.78 and inactive: 0.234.
On the same counts, the results for `Cc1coc2ccc3ccc(=O)oc3c12` are inactive: -0.403, inactive: 0.93 and inactive: 1.4.
Consider `O=C(Nc1ncc(F)s1)[C@H](CC1CCOCC1)c1ccc(S(=O)(=O)C2CC2)cc1`, for which the TEAD-luciferase reporter activity (compound concentration: 200 nM) is inactive: -0.287, the TEAD-luciferase reporter activity (compound concentration: 2 uM) was inactive: 0.502 and the TEAD-luciferase reporter activity (compound concentration: 10 uM) is inactive: 0.732.
On the same counts, the results for `COc1ccccc1-c1ncc(-c2nn[nH]n2)c(O)n1` are inactive: 0.00781, inactive: -1.04 and inactive: -1.12.
On the same counts, the results for `CC(C)C[C@H](N[C@@H](c1ccc(-c2ccc(S(C)(=O)=O)cc2)cc1)C(F)(F)F)C(=O)NCC#N` are inactive: -0.186, inactive: -1.2 and inactive: 0.053.
On the same counts, the results for `Cc1cc(C[C@@H](CC(=O)N2CCC(N3CCc4ccccc4NC3=O)CC2)C(=O)O)cc(C)c1O` are inactive: 0.332, inactive: -0.547 and inactive: -0.147.
For the molecule `COc1ccc2c(c1)c(-c1ccc(C(C)C)cc1)nc(=O)n2C(C)C` [analog of AXT-914], the TEAD-luciferase reporter activity (compound concentration: 200 nM) was inactive: -0.443, the TEAD-luciferase reporter activity (compound concentration: 2 uM) was inactive: -0.906 and the TEAD-luciferase reporter activity (compound concentration: 10 uM) is inactive: 1.44.
On the same counts, the results for `C=C(Nc1ccc(OCC)cc1)Nc1ccc(OCC)cc1` are inactive: -0.84, inactive: 2.76 and inactive: -1.08.
On the same counts, the results for `CC(=O)NC[C@@H]1CN(c2ccc(N(C)S(C)(=O)=O)c(F)c2)C(=O)O1` are inactive: 1.07, inactive: -1.49 and inactive: 1.13.
On the same counts, the results for `Cc1cc(-c2ccc3c(c2)CC[C@H]3N2CC3(CCN(C(=O)Cc4cn5cc(C)sc5n4)CC3)C2)ncn1` are inactive: -0.913, inactive: -1.57 and inactive: 0.556.
On to `O=[N+]([O-])c1ccc(/C=C/c2cccc(CO)n2)o1` [Nifurpirinol], for which the TEAD-luciferase reporter activity runs as follows: (compound concentration: 200 nM) inactive: -0.126; (compound concentration: 10 uM) inactive: 0.451.
Consider `c1ccc2c(c1)c1cc[n+]2CCCCCCCCCC[n+]2ccc(c3ccccc32)NCCCCCCCCCCN1`, for which the TEAD-luciferase reporter activity is inactive: -0.159 (compound concentration: 200 nM), inactive: 0.183 (compound concentration: 2 uM) and inactive: -0.269 (compound concentration: 10 uM).
On the same counts, the results for `CCCCCCCCCCCC(=O)O[C@@H]1C[C@@H](CCOc2ccccc2CCc2cccc(OC)c2)N(C)C1` are inactive: -0.157, inactive: -0.485 and inactive: 0.152.
On to `C#C[C@]1(O)CC[C@H]2[C@@H]3CCc4cc(OS(=O)(=O)C(C)C)ccc4[C@H]3CC[C@@]21C` [ethinyl estradiol sulfonate], for which the TEAD-luciferase reporter activity is, setting by setting: (compound concentration: 200 nM) inactive: -0.456; (compound concentration: 2 uM) inactive: 2.2; (compound concentration: 10 uM) inactive: 4.88.
On the same counts, the results for `CC(C)C1O[C@@H]2C[NH][Pt]3([NH]C[C@H]2O1)[O]C(=O)CC(=O)[O]3` [heptaplatin] are inactive: -0.744, inactive: -1.04 and inactive: -0.902.
On the same counts, the results for `CC(C)(C)CC(=O)Nc1c(F)cc(C(=O)/N=c2\sccn2COP(=O)(O)O)cc1F` are inactive: 0.203, inactive: -0.472 and inactive: -1.39.
For `CC(=O)N1CCCN(C(=O)c2c[nH]c3ncccc23)CC1`, the TEAD-luciferase reporter activity was inactive: -2.09 (compound concentration: 200 nM) and inactive: 0.993 (compound concentration: 10 uM).
Turning to `O=C(O)c1cc(=O)c2ccc(OCC(O)COc3ccc4c(=O)cc(C(=O)O)oc4c3)cc2o1`, the TEAD-luciferase reporter activity (compound concentration: 200 nM) was inactive: 1.45, the TEAD-luciferase reporter activity (compound concentration: 2 uM) was inactive: -1.07 and the TEAD-luciferase reporter activity (compound concentration: 10 uM) is inactive: -0.111.
Consider `Cc1c(NC(=O)OC[C@@H]2COCCN2)cn2ncnc(Nc3ccc4c(cnn4Cc4cccc(F)c4)c3)c12`, for which the TEAD-luciferase reporter activity reads like this: (compound concentration: 200 nM) active: 5.62; (compound concentration: 2 uM) inactive: -0.545 and inactive: -0.907; (compound concentration: 10 uM) inactive: 0.693.
With `Oc1ccc(OCc2ccccc2)cc1`, the TEAD-luciferase reporter activity is, setting by setting: (compound concentration: 200 nM) inactive: 4; (compound concentration: 2 uM) inactive: 0.235; (compound concentration: 10 uM) inactive: 3.22.
For the molecule `CC(C)[C@H](NC(=O)[C@@H]1CCCN1)C(=O)N[C@H](C(=O)N[C@@H](CCCCN)C(=O)N1CCC[C@H]1C(=O)N[C@@H](CCC(N)=O)C(=O)N[C@H](C)C(N)=O)[C@@H](C)O`, the TEAD-luciferase reporter activity (compound concentration: 200 nM) is inactive: -1.88, the TEAD-luciferase reporter activity (compound concentration: 2 uM) is inactive: 0.483 and the TEAD-luciferase reporter activity (compound concentration: 10 uM) is inactive: -0.64.
On the same counts, the results for `O=S(=O)(O)c1ccc(O)cc1` are inactive: -2.04, inactive: 1.46 and inactive: -0.751.
